Measured values taken from publication PMC12451111.
No constants are given. Whether binding was seen depends on the method and setting. Binding seen in cells or lysates may run through a third protein. Some results given as binding are weak or reduced against the parent protein; the word gives no strength. Tags and fused reporters may be left off the sequences shown.

Target: T1, Flag-tagged LHPP (phospholysine phosphohistidine inorganic pyrophosphate phosphatase) (human) (UniProt Q9H008)
T1 sequence: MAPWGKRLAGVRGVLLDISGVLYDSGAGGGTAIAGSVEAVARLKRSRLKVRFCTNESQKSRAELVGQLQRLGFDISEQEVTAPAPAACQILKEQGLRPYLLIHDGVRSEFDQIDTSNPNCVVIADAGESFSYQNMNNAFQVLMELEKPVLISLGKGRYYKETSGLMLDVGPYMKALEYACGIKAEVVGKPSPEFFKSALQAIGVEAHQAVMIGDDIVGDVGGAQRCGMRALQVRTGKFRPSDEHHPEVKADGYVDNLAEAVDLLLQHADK
Experiment: co-IP; IP with Flag-LHPP in Mum2b control and Mum2b LHPP-Flag-overexpressing cells; ACO2 detected

binding: binds
B1: mitochondrial aconitate hydratase 2 (aconitase 2, ACO2) (enzyme, UniProt Q99798 28-780)
chain: QRAKVAMSHFEPNEYIHYDLLEKNINIVRKRLNRPLTLSEKIVYGHLDDPASQEIERGKSYLRLRPDRVAMQDATAQMAMLQFISSGLSKVAVPSTIHCDHLIEAQVGGEKDLRRAKDINQEVYNFLATAGAKYGVGFWKPGSGIIHQIILENYAYPGVLLIGTDSHTPNGGGLGGICIGVGGADAVDVMAGIPWELKCPKVIGVKLTGSLSGWSSPKDVILKVAGILTVKGGTGAIVEYHGPGVDSISCTGMATICNMGAEIGATTSVFPYNHRMKKYLSKTGREDIANLADEFKDHLVPDPGCHYDQLIEINLSELKPHINGPFTPDLAHPVAEVGKVAEKEGWPLDIRVGLIGSCTNSSYEDMGRSAAVAKQALAHGLKCKSQFTITPGSEQIRATIERDGYAQILRDLGGIVLANACGPCIGQWDRKDIKKGEKNTIVTSYNRNFTGRNDANPETHAFVTSPEIVTALAIAGTLKFNPETDYLTGTDGKKFRLEAPDADELPKGEFDPGQDTYQHPPKDSSGQHVDVSPTSQRLQLLEPFDKWDGKDLEDLQILIKVKGKCTTDHISAAGPWLKFRGHLDNISNNLLIGAINIENGKANSVRNAVTQEFGPVPDTARYYKKHGIRWVVIGDENYGEGSSREHAALEPRHLGGRAIITKSFARIHETNLKKQGLLPLTFADPADYNKIHPVDKLTIQGLKDFTPGKPLKCIIKHPNGTQETILLNHTFNETQIEWFRAGSALNRMKELQQ
